From PubChem BioAssay record AID1963591 (Tox21, 2024).

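HEK293T cells with a CRE beta-lactamase reporter, where the FRET ratio shows how compounds affect cAMP-driven signaling over roughly 3 hours.
Each compound was run as a concentration series, mostly reaching a top of 92.4 µM.
Fitted potency from the dose curve; a lower value means a more potent compound.
Calls come from the whole dose curve: active means a well-fitted inhibition curve with enough effect in repeat runs, inconclusive means weak, mixed or opposite-direction curves, and inactive means a flat curve.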

Values are in nM.
Every entry below has the call inconclusive.
Only part of the assay is shown, chiefly results filed as inconclusive.
Potencies fitted to partial, single-point or poorly fitting curves are rough.
Some entries filed as inconclusive have a full curve.
The first word of each remark tells which way the curve ran; it can be opposite to the aim of the assay.

* COCC(=O)O[C@]1(CCN(C)CCCc2nc3ccccc3[nH]2)CCc2cc(F)ccc2[C@@H]1C(C)C | Potency 33491 nM
* CN(C)[C@@H](CCOc1cccc2ccccc12)c1ccccc1 | Potency 33491 nM
* COc1cc2c(cc1OC)C(=O)C(CC1CCN(Cc3ccccc3)CC1)C2 (stereo not shown) | Potency 16785 nM (activator, full curve, poor fit)
* CC[C@H](c1ccc(O)cc1)[C@@H](CC)c1ccc(O)cc1 | Potency 68589 nM
* COc1c(C)c2c(c(O)c1C/C=C(\C)CCC(=O)O)C(=O)OC2 | Potency 14960 nM (fluorescent, partial curve, poor fit)
* C1CN(SSN2CCOCC2)CCO1 | Potency 67892 nM (rising, partial curve, poor fit)
* N=C1C=CC(=C(c2ccc(N)cc2)c2ccc(N)cc2)C=C1 | Potency 6390 nM (activator, full curve)
* CCO/N=C(\CC)C1=C(O)CC(c2c(C)cc(C)cc2C)CC1=O (stereo not shown) | Potency 34376 nM (activator, partial curve, poor fit)
* O=C(c1ccc(OCCN2CCCCC2)cc1)c1c(-c2ccc(O)cc2)sc2cc(O)ccc12 | Potency 26603 nM (fluorescent, partial curve)
* CC(C)(C)CC(C)(C)c1ccc(O)cc1 | Potency 20476 nM
* C#CC1(O)CC[C@H]2[C@@H]3CCC4=CCCC[C@@H]4[C@H]3CC[C@@]21C (stereo partly shown) | Potency 68589 nM (inhibitor, single point)
* CNCCC(Oc1ccc(C(F)(F)F)cc1)c1ccccc1 (stereo not shown) | Potency 75942 nM (inhibitor, single point)
* COC(=O)[C@H]1[C@H]2C[C@@H]3c4[nH]c5cc(OC)ccc5c4CCN3C[C@H]2C[C@@H](OC(=O)/C=C/c2ccc(O)c(OC)c2)[C@@H]1OC | Potency 23710 nM (fluorescent, partial curve)
* C[C@]12CCC(=O)C(O)=C1CC[C@@H]1[C@@H]2CC[C@]2(C)C(=O)CC[C@@H]12 | Potency 61130 nM (fluorescent, partial curve, poor fit)
* CCCCCCCCCCCCCC[n+]1ccccc1 | Potency 61130 nM (fluorescent, partial curve)
* CCCCNC(=O)OCC#CI | Potency 68241 nM
* c1ccc2c(c1)-c1ccc3ccc4cccc5cc-2c1c3c45 | Potency 4216 nM (fluorescent, partial curve)
* CC(C)=CCNc1ncnc2c1ncn2[C@@H]1O[C@H](CO)[C@@H](O)[C@H]1O | Potency 3758 nM (activator, full curve)
* Nc1ccc(-c2ccc(N)c(Cl)c2)cc1Cl | Potency 43497 nM (inhibitor, partial curve)
* C[C@]12CC[C@H]3[C@@H](CCC4=CC(=O)CC[C@@]43C)[C@@H]1CC[C@@H]2C(=O)CO | Potency 54482 nM (fluorescent)
* O=C(N[C@H](c1ccccc1)[C@@H]1CN2CCC1CC2)c1c(Cl)ccc(C(F)(F)F)c1Cl | Potency 98363 nM (rising, single point)
* CCCCCCCCCCCCOCCOS(=O)(=O)O | Potency 68589 nM (activator, partial curve, poor fit)
* CNS(=O)(=O)c1cc(C(=O)N2CCC(CCN3C4CCC3CC(n3c(C)nc5ccccc53)C4)(c3cccc(F)c3)CC2)c(Cl)cc1F (stereo not shown) | Potency 27306 nM (fluorescent, partial curve)
* N#Cc1nc(Cl)c(Cl)c(Cl)c1Cl | Potency 68589 nM
* CCN(CC)CCOC(=O)C1(C2CCCCC2)CCCCC1 | Potency 29849 nM (rising, single point)
* Oc1ccc2cc(SSc3ccc4cc(O)ccc4c3)ccc2c1 | Potency 68659 nM (inhibitor, single point)
* Cc1nc2ccc(Cl)cc2[nH]1 | Potency 1.9 nM (rising, full curve, poor fit)
* Clc1ccc(C(c2ccccc2Cl)C(Cl)Cl)cc1 (stereo not shown) | Potency 29849 nM (rising, single point)
* Cc1ccc([N+](=O)[O-])[c]2c1[O][Hg]2 | Potency 7498 nM (rising, partial curve)
* CCCCCCCCCCCC[N+](C)(C)C | Potency 54316 nM (partial curve)
* Oc1cc2c(cc1O)[C@H]1c3ccc(O)c(O)c3OC[C@@]1(O)C2 | Potency 69427 nM (inhibitor)
* c1cc(OCC2CO2)ccc1Cc1ccc(OCC2CO2)cc1 (stereo not shown) | Potency 63904 nM (activator, single point)
* COc1ccc(N=Nc2cc(C)c(N=Nc3ccc(S(=O)(=O)O)cc3)cc2OC)cc1 | Potency 34376 nM (activator, partial curve)
* Cc1c(Cl)c(=O)oc2cc(O)ccc12 | Potency 17228 nM (fluorescent, partial curve)
* O=S1(=O)OCC2C(CO1)C1(Cl)C(Cl)=C(Cl)C2(Cl)C1(Cl)Cl (stereo not shown) | Potency 68589 nM (single point)
* CCOC(=O)[C@H](CCc1ccccc1)N[C@H]1CCc2ccccc2N(CC(=O)O)C1=O | Potency 29849 nM (activator)
* CS(=O)(=O)CCNCc1ccc(-c2ccc3ncnc(Nc4ccc(OCc5cccc(F)c5)c(Cl)c4)c3c2)o1 | Potency 14960 nM (fluorescent, partial curve)
* CC(C)(O)c1cnn2c(-c3ccc(F)c(-c4c(F)cccc4C#N)c3)cnc2n1 | Potency 68589 nM (fluorescent)
* C[C@]12C=CC3=C4CCC(=O)C=C4CC[C@H]3[C@@H]1CC[C@@H]2O | Potency 13581 nM (activator, full curve, poor fit)
* OC(O)C(Cl)(Cl)Cl | Potency 1.5 nM (falling, full curve, poor fit)
* Nc1nc(N)c2nc(-c3ccccc3)c(N)nc2n1 | Potency 26603 nM (activator, partial curve)
* Cc1cc(O)c(C(C)C)cc1Cl | Potency 43277 nM
* C=C(C)c1cccc(C(=C)C)c1 | Potency 1.7 nM (falling, full curve, poor fit)
* Cc1cc(O)c2c(c1)C(=O)c1cc(O)cc(O)c1C2=O | Potency 8045 nM (activator, partial curve)
* C=CCC1=C(C)C(OC(=O)C2C(C=C(C)C)C2(C)C)CC1=O (stereo not shown) | Potency 61160 nM (fluorescent)
* CCCC[P+](CCCC)(CCCC)CCCC | Potency 24807 nM (activator, single point)
* C[C@]12CCC(=O)C=C1[C@@H]1C[C@@H]1[C@H]1[C@@H]3[C@@H]4C[C@@H]4[C@@]4(CCC(=O)O4)[C@@]3(C)CC[C@@H]12 | Potency 23710 nM (fluorescent, partial curve)
* CC(C)(C)c1cc(/C=C2\SC(=N)NC2=O)cc(C(C)(C)C)c1O | Potency 68589 nM (fluorescent)
* C[C@H]1O[C@@H](O[C@H]2[C@@H](O)C[C@H](O[C@H]3[C@@H](O)C[C@H](O[C@H]4CC[C@@]5(C)[C@H](CC[C@@H]6[C@@H]5C[C@@H](O)[C@]5(C)[C@@H](C7=CC(=O)OC7)CC[C@]65O)C4)O[C@@H]3C)O[C@@H]2C)C[C@H](O)[C@@H]1O | Potency 251.6 nM (activator, full curve, poor fit)
* CCc1nn(C)c(C(=O)NCc2ccc(C(C)(C)C)cc2)c1Cl | Potency 68589 nM (single point)
* CC(O)(c1ccc(Cl)cc1)c1ccc(Cl)cc1 | Potency 30637 nM (full curve)
* CCOC(=O)C(C)Oc1ccc(Oc2cnc3cc(Cl)ccc3n2)cc1 (stereo not shown) | Potency 5582 nM (fluorescent, partial curve, poor fit)
* O=c1c(-c2ccccc2)c1-c1ccccc1 | Potency 29849 nM
* CCOc1ccc(NC(=O)CC(C)=O)cc1 | Potency 48557 nM (activator, partial curve)
* C=CCN1C[C@H](C(=O)N(CCCN(C)C)C(=O)NCC)C[C@@H]2c3cccc4[nH]cc(c34)C[C@H]21 | Potency 13333 nM (activator, partial curve, poor fit)

Some entries from above, unchanged:

- Cc1cc(O)c2c(c1)C(=O)c1cc(O)cc(O)c1C2=O : Potency 8045 nM (activator, partial curve)
- CCO/N=C(\CC)C1=C(O)CC(c2c(C)cc(C)cc2C)CC1=O (stereo not shown) : Potency 34376 nM (activator, partial curve, poor fit)
- CC(C)(O)c1cnn2c(-c3ccc(F)c(-c4c(F)cccc4C#N)c3)cnc2n1 : Potency 68589 nM (fluorescent)
- CC(C)=CCNc1ncnc2c1ncn2[C@@H]1O[C@H](CO)[C@@H](O)[C@H]1O : Potency 3758 nM (activator, full curve)
- CCN(CC)CCOC(=O)C1(C2CCCCC2)CCCCC1 : Potency 29849 nM (rising, single point)